According to PMC4234486:
No constants are given. Whether binding was seen depends on the method and setting. In cells and extracts the contact can be indirect. Some entries that bind do so weakly or less than the wild type. Where a sequence is shown, tags or fusion partners need not be part of it.

Biological target: T1, Cip2-TAP (fission yeast (S. pombe)) (UniProt Q09868)
T1 sequence: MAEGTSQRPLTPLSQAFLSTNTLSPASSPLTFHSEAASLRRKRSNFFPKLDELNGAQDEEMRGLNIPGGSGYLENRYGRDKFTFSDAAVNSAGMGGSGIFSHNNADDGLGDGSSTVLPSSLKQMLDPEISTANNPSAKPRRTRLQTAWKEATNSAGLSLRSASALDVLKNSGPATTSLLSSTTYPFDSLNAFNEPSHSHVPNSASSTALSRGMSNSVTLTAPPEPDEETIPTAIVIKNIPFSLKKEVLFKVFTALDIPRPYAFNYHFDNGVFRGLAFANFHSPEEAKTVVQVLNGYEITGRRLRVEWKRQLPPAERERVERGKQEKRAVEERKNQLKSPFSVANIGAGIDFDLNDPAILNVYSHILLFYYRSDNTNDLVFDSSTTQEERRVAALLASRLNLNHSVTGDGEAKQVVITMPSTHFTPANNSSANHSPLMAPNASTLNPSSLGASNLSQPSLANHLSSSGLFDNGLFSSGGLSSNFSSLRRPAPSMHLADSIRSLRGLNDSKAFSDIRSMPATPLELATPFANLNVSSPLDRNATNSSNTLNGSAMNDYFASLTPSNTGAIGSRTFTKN
Assay: co-IP; fission yeast cell extracts; TAP-tagged protein immunoprecipitated with monoclonal antibodies against protein A; Western blot with peroxidase anti-peroxidase complexes (TAP) and anti-myc; also after treating 250 ul of extract with 200 units of RNase I for 15 minutes at room temperature (interaction kept)

binding: binds
B1: Sty1-myc (protein, UniProt Q09892 1-349)
chain: MAEFIRTQIFGTCFEITTRYSDLQPIGMGAFGLVCSAKDQLTGMNVAVKKIMKPFSTPVLAKRTYRELKLLKHLRHENIISLSDIFISPFEDIYFVTELLGTDLHRLLTSRPLETQFIQYFLYQILRGLKFVHSAGVIHRDLKPSNILINENCDLKICDFGLARIQDPQMTGYVSTRYYRAPEIMLTWQKYNVEVDIWSAGCIFAEMIEGKPLFPGRDHVNQFSIITELLGTPPMEVIETICSKNTLRFVQSLPQKEKVPFAEKFKNADPDAIDLLEKMLVFDPRKRISAADALAHNYLAPYHDPTDEPVADEVFDWSFQDNDLPVETWKVMMYSEVLSFHNMDNELQS
